In US20020065210A1 one finds binding data, which are given here for one substance.

By UniProt entry, the sequences of proteins in these tests, tags left out. Residues count along the entry.
UniProt P48023, residues 103-281: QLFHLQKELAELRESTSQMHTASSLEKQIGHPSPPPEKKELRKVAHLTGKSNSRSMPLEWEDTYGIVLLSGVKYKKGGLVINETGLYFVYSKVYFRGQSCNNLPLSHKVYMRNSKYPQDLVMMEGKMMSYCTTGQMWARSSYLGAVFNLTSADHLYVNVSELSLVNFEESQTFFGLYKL
UniProt P25445, residues 26-173: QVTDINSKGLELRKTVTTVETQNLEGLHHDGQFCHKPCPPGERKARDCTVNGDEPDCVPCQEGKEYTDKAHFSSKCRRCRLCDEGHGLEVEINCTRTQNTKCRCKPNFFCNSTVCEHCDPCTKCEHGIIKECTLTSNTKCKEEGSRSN

In the experiment the target is purified, soluble Fas ligand (Alexis Biochemicals) (UniProt P48023). In words: co-immunoprecipitation with protein A-sepharose, anti-Fas ligand immunoblot. (In western blotting, separated proteins are transferred to a membrane and probed.)

No constants are given. Whether binding was seen depends on the method and setting. Binding seen in cells or lysates may run through a third protein. Some entries that bind do so weakly or less than the wild type.

As for “Fc-tagged Fas ectodomain (from UniProt P25445 26-173) (Fc fusion)”, the binding result was “binds”.
